Laboratory results: patent US6869785

Tests used:
[1] = target: cytochrome c oxidase core subunit II (CO II) of Gluconobacter oxydans DSM 4025 (Gluconobacter oxydans DSM 4025); experiment: co-purified complex dissociated by preparative SDS-PAGE
[2] = target: cytochrome c oxidase core subunit II (CO II) of Gluconobacter oxydans DSM 4025 (Gluconobacter oxydans DSM 4025); experiment: co-purification as one complex; dissociation by preparative SDS-PAGE
[3] = target: cytochrome c oxidase core subunit II (CO II) of Gluconobacter oxydans DSM 4025 (Gluconobacter oxydans DSM 4025); experiment: co-purification (DEAE, hydroxylapatite); single band on native PAGE, two bands on SDS-PAGE

Measured: binding

B1: cytochrome c oxidase core subunit I (CO I) of Gluconobacter oxydans DSM 4025 (enzyme)
chain: MADAAIHGHDHHEKQGFFTRWFMSTNHKDIGLLYLVAAGVVGFISVLFTVYMRLELMDPGVQYMCLEGARLIADASQTCTANGHLWNVMVTYHGILMMFFVGIPALFGGFGNYLMPLQIGAPDMAFPRMNNLSFWLFIAGTAMGVASLFAPGGDGQLGSGVGWVLYPPLSTREAGYSMDLAIFAVHLSGASSIMGAINMITTFLNMRAPGMTLHKVPLFSWSIFITAWLILLALPVLAGAITMLLTDRNFGTTFFNPAGGGDPILYQHILWFFGHPEVYIIILPGFGIISHVVSTFSKKPVFGYLPMVYAMVAIGVLGFVVWAHHMYTVGMSLTQQSYFMLATMVIAVPTGIKIFSWIATMWGGSVEFKSPMLWAFGFMFLFTVGGVTGIVLAQAGLDRAYHDTYYVVAHFHYVMSLGAIFAIFAGIYFYMPKFSGRAFPEWAAKLHFWTFFIGANVTFFPQHFLGRQGMPRRYIDYPEAFALWNKVSSYGAFLAFASFLFFIVIFVYTLVAGRRETRPNPWGEFADTLEWTLPSPPPAHTFETLPKRSDWDKHPSH
modifications: N-terminal alpha-amino residue blocked by unidentified modification
binds: [1] | [2] | [3]

These are yes or no findings as the source states them, for the method shown. Binding seen in cells or lysates may run through a third protein. Binding calls can cover weak binding; strength is not graded here. Tags and fused reporters may be left off the sequences shown.
